PubChem BioAssay AID504793, Drosophila RNAi Screening Center, 2011

Aim: 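Genes required for cells to halt at G2/M after double-strand DNA breaks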 (primary screen)
System: Drosophila S2R+ cells
Reagent: long dsRNA against Drosophila genes, about 0.25 µg dsRNA per well
Time to read-out: 4 days of dsRNA, then 4 hours of drug before read-out
Challenge: doxorubicin 0.5 µM for 4 hours to cause double-strand breaks, in cells also given a low, harmless dose of dsRNA against nbs to sensitise the assay
Measured: 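Mitotic index as the number of phospho-histone H3-positive cells in each well following doxorubicin, given as raw counts without normalisation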
Direction: mitotic cells: higher = more cells in mitosis, weaker G2 arrest
Call rule: 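a call needs confirmation in secondary tests, with other dsRNAs and a check of mitotic timing without damage, not just a high primary count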
Calls: active = confirmed in follow-up tests; inactive = not confirmed
The deposit covers about 23,000 reagents; shown is an unselected part of those with a known target gene and a result. In the full data, 62 (0.27%) were called active. 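Calls come from follow-up tests whose scores are not deposited, so confirmed genes may have low counts here; counts are not normalised per plate.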 Raw values vary from plate to plate and are shown uncorrected. Reagents against one gene are numbered here.

Knock-down of CG34347 #1 came out at: mitotic cells, replicate 1 = 14; inactive. Depletion of CG34347 #2 came out at: mitotic cells, replicate 1 = 10; inactive. Silencing of CG34347 #3 resulted in: mitotic cells, replicate 1 = 4; inactive. Silencing of l(2)34Fc gave: mitotic cells, replicate 1 = 8; inactive. For Sbp2, the entry reads inactive. Silencing of Cul4 #1 came out at: mitotic cells, replicate 1 = 10; inactive.

Knock-down of Cul4 #2 resulted in: mitotic cells, replicate 1 = 13; inactive. With knock-down of VGAT, the record shows mitotic cells, replicate 1 = 3; inactive. exex #1 showed mitotic cells, replicate 1 = 8; inactive. Silencing of exex #2 came out at: mitotic cells, replicate 1 = 4; inactive. For Vha44 #1 the deposit lists mitotic cells, replicate 1 = 2; inactive. Depletion of Vha44 #2 gave: mitotic cells, replicate 1 = 8; inactive.

Vha44 #3 scored mitotic cells, replicate 1 = 7; inactive. Depletion of bin #1 resulted in: mitotic cells, replicate 1 = 6; inactive. Silencing of bin #2 came out at: mitotic cells, replicate 1 = 6; inactive. For CG15594 the deposit lists mitotic cells, replicate 1 = 4; inactive. to #1 showed mitotic cells, replicate 1 = 8; inactive. Against to #2 the deposit lists mitotic cells, replicate 1 = 3; inactive.

Depletion of Ctl1 resulted in: mitotic cells, replicate 1 = 6; inactive. CG17715 showed mitotic cells, replicate 1 = 10; inactive. With knock-down of Gld2 #1 the results were mitotic cells, replicate 1 = 16; inactive. After knock-down of Gld2 #2 the results were mitotic cells, replicate 1 = 6; inactive.

4 successive records from above, quoted:
CG34347 #3: mitotic cells, replicate 1 = 4; Call = inactive
l(2)34Fc: mitotic cells, replicate 1 = 8; Call = inactive
Sbp2: Call = inactive
Cul4 #1: mitotic cells, replicate 1 = 10; Call = inactive

Further records:
Depletion of CG33003 #1 gave: mitotic cells, replicate 1 = 7; inactive. After knock-down of CG33003 #2 the results were mitotic cells, replicate 1 = 8; inactive. After knock-down of CG1542 #1, the record shows mitotic cells, replicate 1 = 7; inactive. CG1542 #2 scored mitotic cells, replicate 1 = 4; inactive. After knock-down of CG12436 (retired record) #1, the screen gave mitotic cells, replicate 1 = 6; inactive. Knock-down of CG12436 (retired record) #2 gave: mitotic cells, replicate 1 = 5; inactive.

Depletion of CG12436 (retired record) #3 resulted in: mitotic cells, replicate 1 = 10; inactive. Silencing of CG9150 #1 came out at: mitotic cells, replicate 1 = 6; inactive. After knock-down of CG9150 #2, the screen gave mitotic cells, replicate 1 = 3; inactive. GNBP2 showed mitotic cells, replicate 1 = 5; inactive. Silencing of CG12985 #1 gave: mitotic cells, replicate 1 = 6; inactive. CG12985 #2 showed mitotic cells, replicate 1 = 5; inactive.
